Experimental data: patent US11999718B2, “Pyrazole derivatives” (Aptabio Therapeutics Inc., priority 2021, dated 2024)
Some results were stated once for a whole list of compounds, not compound by compound. Some ranges recur; such a range may be that of the whole group of compounds.

Test system: αSMA
Assay: Expression of αSMA induced by TGF-β1 (immunocytochemistry)
Format: cell-based, human
Conditions: HFF cells, TGF-β1 10 ng/ml, compounds 10, 20 and 40 μM, FIG. 3
From the text: In order to confirm whether the compounds of Synthetic examples of the present invention affect differentiation of fibroblasts into myofibroblasts, the inhibitory effect of the compounds of Synthetic examples on increase in expression of αSMA (biomarker for confirming differentiation into myofibroblasts) induced by TGF-β1 on HFF-1 (human foreskin fibroblast, ATCC), NHLF (normal human lung fibroblast, Lonza), LX-2 (human hepatic stellate cells, Sigma), ARPE19 (human retinal pigment epithelial cell, ATCC), and KEL-FIB (Keloid fibroblast, ATCC) cells was to be observed.
Each cell was suspended in a DMEM medium containing 10% FBS and aliquoted at a concentration of 1×10^4 to 1.5×10^5 cells/well in a 4-well chamber slide (Nunc) and the compounds of Synthetic examples and TGF-β1 (both TGF β1 and TGF-β have the same meaning) were treated to prepare cells to be used for confirming αSMA expression. The confirmation of αSMA expression in the prepared cells was performed by immunocytochemistry as follows. For the cells, fixation with 4% paraformaldehyde for 10 minutes and permeabilization using 0.1% Triton x-100 were performed, and then processes of treating the primary antibody (anti-αSMA Ab, 1:200, at 4° C. for 16 hours) and secondary antibody (Alexa-594 conjugated Ab, 1:800, at a room temperature for 1 hour) against αSMA were progressed in order, and then the expression level of αSMA was observed using a fluorescence microscope.
FIG. 3 observes the effect of treating various compounds of Synthetic examples by 10, 20 and 40 μM, after inducing αSMA expression by treatment of TGF-β1(10 ng/ml) into HFF cells.

Compound	effect of inhibiting αSMA expression
CN(Cc1cccc(S(C)(=O)=O)c1)C1CCc2nn(-c3ccccn3)c(O)c2C1 (stereo not drawn) [Compound 23, 5-[Methyl(3-methylsulfonylbenzyl)amino]-2-(pyridin-2-yl)-4,5,6,7-tetrahydro-2H-indazol-3-ol]	35%-70%
Oc1c2c(nn1-c1ccccn1)CCC(N1CCCCC1)C2 (stereo not drawn) [Compound 14, 5-Piperidin-1-yl-2-(pyridin-2-yl)-4,5,6,7-tetrahydro-2H-indazol-3-ol]	35%-70%
CN(Cc1ccccc1)C1CCc2nn(-c3ccccn3)c(O)c2C1 (stereo not drawn) [Compound 1, 5-(Benzylmethylamino)-2-(pyridin-2-yl)-4,5,6,7-tetrahydro-2H-indazol-3-ol]	35%-70%
CN(C1CCc2nn(-c3ccccn3)c(O)c2C1)C1CCCc2cccnc21 (stereo not drawn) [Compound 33, 5-[Methyl(5,6,7,8-tetrahydroquinolin-8-yl)amino]-2-(pyridin-2-yl)-4,5,6,7-tetrahydro-2H-indazol-3-ol]	35%-70%
CN(Cc1ccc(F)cc1F)C1CCc2nn(-c3ccccn3)c(O)c2C1 (stereo not drawn) [Compound 5, 5-[(2,4-Difluorobenzyl)methylamino]-2-(pyridin-2-yl)-4,5,6,7-tetrahydro-2H-indazol-3-ol]	35%-70%
CN(Cc1ccc(S(C)(=O)=O)cc1)C1CCc2nn(-c3ccccn3)c(O)c2C1 (stereo not drawn) [Compound 12, 5-[(4-Methanesulfonylbenzyl)methylamino]-2-(pyridin-2-yl)-4,5,6,7-tetrahydro-2H-indazol-3-ol]	35%-70%
